Measured values reported in patent US20160194677.
The exact form of at least one protein or probe is not confirmed.

Protein sequences, listed by entry. Tags and fused reporters are not part of them. Lines headed by an entry give the natural chain unless they say otherwise; changes in a name come on top.
UniProt P07636: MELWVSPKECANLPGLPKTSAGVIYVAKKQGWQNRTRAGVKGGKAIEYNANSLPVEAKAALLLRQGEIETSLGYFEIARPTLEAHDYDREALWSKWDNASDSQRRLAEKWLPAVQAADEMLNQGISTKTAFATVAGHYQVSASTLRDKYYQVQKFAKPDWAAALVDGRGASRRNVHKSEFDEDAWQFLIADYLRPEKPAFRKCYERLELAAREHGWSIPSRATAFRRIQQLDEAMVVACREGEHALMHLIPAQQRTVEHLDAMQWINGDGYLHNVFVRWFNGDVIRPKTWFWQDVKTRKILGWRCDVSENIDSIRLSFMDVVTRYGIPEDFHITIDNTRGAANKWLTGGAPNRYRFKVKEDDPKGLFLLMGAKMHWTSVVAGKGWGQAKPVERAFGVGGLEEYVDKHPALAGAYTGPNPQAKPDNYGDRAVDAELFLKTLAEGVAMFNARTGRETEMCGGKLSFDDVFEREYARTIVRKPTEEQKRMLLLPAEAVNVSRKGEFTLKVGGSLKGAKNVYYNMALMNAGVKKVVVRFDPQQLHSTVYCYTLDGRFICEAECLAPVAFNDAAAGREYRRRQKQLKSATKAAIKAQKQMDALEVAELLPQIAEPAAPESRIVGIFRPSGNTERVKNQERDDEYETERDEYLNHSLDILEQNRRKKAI

Biological target: MuA transposase (UniProt P07636)
Experiment: enzyme reaction in vitro
Settings: purified recombinant protein, protein details: Thermo catalogue F-750C

Sequence: GATCTGAAGCGGCGCACGAAAAACGCGAAAGCGTTTCACGATAAATGCGAAAACGTTTTCGCATTTATCGTGAAACGCTTTCGCGTTTTTCGTGCGCCGCTTCA [Hairpin MuA substrate (dUMP)]
- activity on this sequence (four iSpC3 spacers between SEQ 36 and 35, dUMP at n of SEQ 36 [position 5 dUMP (n = T), four iSpC3 spacers between SEQ 36 and 35 (between positions 54 and 55) left out], folded or branched DNA, letters built from the parent sequence and the stated change): active

Sequence: TTTTTTTTTTTTTTTTTTTTTTTTTTTTTTTTTTTTTTTTTTTTTTTTTTGGTTGTTTCTGTTGGTGCTGATATTGCGTTTTCGCATTTATCGTGAAACGCTTTCGCGTTTTTCGTGCGCCGCTTCA / GATCTGAAGCGGCGCACGAAAAACGCGAAAGCGTTTCACGATAAATGCGAAAAC [MuA substrate 1 (wild-type end)]
- activity on this sequence (four C3 spacers between SEQ 27 and SEQ 24): active

Sequence: TTTTTTTTTTTTTTTTTTTTTTTTTTTTTTTTTTTTTTTTTTTTTTTTTTGGTTGTTTCTGTTGGTGCTGATATTGCGTTTTCGCATTTATCGTGAAACGCTTTCGCGTTTTTCGTGCGCCGCTTCA / GATCTGAAGCGGCGCACGAAAAACGCGAAAGCGTTTCACGATAAATGCGAAAAC [MuA substrate 2 (dUMP)]
- activity on this sequence (four C3 spacers between SEQ 27 and SEQ 24, dUMP at n of SEQ 26, 5' phosphate on SEQ 26 [strand 2 position 5 dUMP (n = T), strand 2 5' phosphate, four C3 spacers between SEQ 27 and SEQ 24 in strand 1 left out], letters built from the parent sequence and the stated change, variant of MuA substrate 1 (wild-type end)): active

Sequence: TTTTTTTTTTTTTTTTTTTTTTTTTTTTTTTTTTTTTTTTTTTTTTTTTTGGTTGTTTCTGTTGGTGCTGATATTGCGTTTTCGCATTTATCGTGAAACGCTTTCGCGTTTTTCGTGCGCCGCTTCA / GATCTGAAGCGGCGCACGAAAAACGCGAAAGCGTTTCACGATAAATGCGAAAACTTTTTTTTTTTTTTTTTTTTTTTTTTTTTTTTTTTTTTTTTTTTTTTTTT [Y-shaped MuA substrate (dUMP)]
- activity on this sequence (four iSpC3 spacers between SEQ 34 and 35 and between SEQ 36 and 37, dUMP at n of SEQ 36 [strand 2 position 5 dUMP (n = T), four iSpC3 spacers between SEQ 34 and 35 (strand 1) and between SEQ 36 and 37 (strand 2, after position 54) left out], letters built from the parent sequence and the stated change): active
